From ChEMBL document CHEMBL3988442, “University of Dundee, Small-Polar-MMV Screening Library” (2021).

The chains behind the UniProt entries cited, without tags or fusion partners. Residues count along the entry.
UniProt P9WNZ1, whole entry: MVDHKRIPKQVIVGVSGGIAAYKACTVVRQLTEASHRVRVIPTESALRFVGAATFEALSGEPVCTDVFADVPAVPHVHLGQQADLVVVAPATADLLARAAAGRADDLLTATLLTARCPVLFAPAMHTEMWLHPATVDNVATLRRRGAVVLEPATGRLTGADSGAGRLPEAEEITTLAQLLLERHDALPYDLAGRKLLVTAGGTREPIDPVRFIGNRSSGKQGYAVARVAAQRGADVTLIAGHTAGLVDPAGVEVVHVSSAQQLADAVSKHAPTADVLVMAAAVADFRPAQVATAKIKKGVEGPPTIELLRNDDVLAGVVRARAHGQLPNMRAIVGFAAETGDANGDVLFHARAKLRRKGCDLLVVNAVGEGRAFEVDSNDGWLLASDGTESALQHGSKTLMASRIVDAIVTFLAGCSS
UniProt I6X8D2, whole entry: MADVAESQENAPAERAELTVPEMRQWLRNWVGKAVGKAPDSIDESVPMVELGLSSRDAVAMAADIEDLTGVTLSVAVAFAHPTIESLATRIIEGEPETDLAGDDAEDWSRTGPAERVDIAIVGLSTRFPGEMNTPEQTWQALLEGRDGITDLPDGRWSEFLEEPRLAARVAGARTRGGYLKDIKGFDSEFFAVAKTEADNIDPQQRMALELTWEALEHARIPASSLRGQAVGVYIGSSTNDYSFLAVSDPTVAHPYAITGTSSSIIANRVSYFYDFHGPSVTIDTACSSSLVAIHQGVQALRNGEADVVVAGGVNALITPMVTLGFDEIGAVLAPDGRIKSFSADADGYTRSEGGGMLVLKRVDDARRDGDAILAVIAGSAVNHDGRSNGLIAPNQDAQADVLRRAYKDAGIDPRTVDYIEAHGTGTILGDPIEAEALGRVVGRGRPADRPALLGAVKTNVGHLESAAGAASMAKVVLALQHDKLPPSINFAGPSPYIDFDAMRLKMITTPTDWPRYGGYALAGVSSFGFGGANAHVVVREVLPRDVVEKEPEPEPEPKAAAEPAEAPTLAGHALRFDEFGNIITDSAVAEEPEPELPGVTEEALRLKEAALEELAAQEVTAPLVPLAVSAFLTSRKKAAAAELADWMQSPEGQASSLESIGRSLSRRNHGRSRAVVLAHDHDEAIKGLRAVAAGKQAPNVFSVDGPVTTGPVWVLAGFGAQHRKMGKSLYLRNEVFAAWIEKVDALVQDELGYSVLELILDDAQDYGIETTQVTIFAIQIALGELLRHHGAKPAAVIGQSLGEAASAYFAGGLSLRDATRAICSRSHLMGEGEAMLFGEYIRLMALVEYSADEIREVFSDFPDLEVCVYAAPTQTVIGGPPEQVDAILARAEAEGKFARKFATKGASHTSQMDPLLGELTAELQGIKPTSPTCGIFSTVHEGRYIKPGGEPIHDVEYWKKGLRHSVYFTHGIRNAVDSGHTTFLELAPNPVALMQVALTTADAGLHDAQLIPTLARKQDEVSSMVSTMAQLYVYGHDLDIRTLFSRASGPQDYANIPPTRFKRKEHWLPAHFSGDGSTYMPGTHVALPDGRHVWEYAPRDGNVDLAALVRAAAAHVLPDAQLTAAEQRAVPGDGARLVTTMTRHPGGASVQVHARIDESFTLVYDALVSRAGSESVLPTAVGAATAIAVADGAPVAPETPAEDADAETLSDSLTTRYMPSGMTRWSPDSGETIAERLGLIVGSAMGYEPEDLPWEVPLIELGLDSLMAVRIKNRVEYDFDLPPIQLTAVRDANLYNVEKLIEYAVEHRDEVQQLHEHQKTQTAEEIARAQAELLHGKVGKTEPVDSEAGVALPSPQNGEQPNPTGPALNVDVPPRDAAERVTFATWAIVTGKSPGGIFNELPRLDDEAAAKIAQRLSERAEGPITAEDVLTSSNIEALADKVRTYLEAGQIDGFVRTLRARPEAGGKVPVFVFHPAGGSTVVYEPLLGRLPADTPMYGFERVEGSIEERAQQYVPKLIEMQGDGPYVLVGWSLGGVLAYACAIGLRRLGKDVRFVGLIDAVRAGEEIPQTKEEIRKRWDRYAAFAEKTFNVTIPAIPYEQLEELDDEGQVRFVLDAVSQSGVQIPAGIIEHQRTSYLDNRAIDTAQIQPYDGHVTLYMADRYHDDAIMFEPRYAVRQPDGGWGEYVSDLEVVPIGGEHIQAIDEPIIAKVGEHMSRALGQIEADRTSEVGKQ
UniProt P9WFT3, whole entry: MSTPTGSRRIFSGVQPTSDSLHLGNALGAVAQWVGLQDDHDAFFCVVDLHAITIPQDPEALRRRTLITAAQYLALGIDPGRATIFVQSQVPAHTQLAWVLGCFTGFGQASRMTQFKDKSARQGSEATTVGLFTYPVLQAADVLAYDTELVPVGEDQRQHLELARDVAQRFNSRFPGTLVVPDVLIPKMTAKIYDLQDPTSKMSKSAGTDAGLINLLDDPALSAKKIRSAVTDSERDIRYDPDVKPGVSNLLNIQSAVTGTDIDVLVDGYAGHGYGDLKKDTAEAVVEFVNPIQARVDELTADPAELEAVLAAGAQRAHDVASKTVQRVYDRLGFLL
UniProt A4I591, 1-473: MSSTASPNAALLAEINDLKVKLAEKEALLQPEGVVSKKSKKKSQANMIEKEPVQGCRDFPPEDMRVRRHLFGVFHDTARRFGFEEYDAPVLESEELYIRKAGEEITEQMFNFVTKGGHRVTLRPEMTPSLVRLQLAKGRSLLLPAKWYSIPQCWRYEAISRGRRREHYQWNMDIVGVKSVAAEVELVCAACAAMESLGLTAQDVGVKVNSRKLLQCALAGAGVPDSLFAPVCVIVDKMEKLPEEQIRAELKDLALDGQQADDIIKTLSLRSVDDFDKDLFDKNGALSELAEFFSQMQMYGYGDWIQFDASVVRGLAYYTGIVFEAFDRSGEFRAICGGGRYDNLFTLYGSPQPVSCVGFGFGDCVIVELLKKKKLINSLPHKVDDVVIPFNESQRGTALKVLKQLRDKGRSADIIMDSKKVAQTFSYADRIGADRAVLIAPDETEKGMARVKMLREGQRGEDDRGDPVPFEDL

CoaBC: 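Coenzyme A biosynthesis protein CoaBC, Mycobacterium tuberculosis (UniProt P9WNZ1). Enzyme assay of CoaBC with a phosphate dye (Biomol Green) read at 650 nm. Tested at 30 µM. Higher reads as stronger inhibition, judged from the few compounds that gave an IC50. Most strong results did not repeat in a second test. About 67,000 compounds were tested under these conditions; 0.06% (about 40) showed 50% or more at least once.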
Pks13 thioesterase: 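Polyketide synthase Pks13, Mycobacterium tuberculosis (UniProt I6X8D2). Enzyme assay of the thioesterase domain of polyketide synthase 13; the read-out is not stated. Compounds at 30 µM. The record gives no direction; the compounds picked for IC50 retests had high values, so higher reads as stronger inhibition. Of about 67,000 compounds tested this way, about 300 (0.46%) reached 50% or more in at least one test.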
MtTrpRS: 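Tryptophan-tRNA ligase, Mycobacterium tuberculosis (UniProt P9WFT3). Enzyme assay of tryptophanyl-tRNA synthetase; the read-out is not stated. Tested at 10 µM. Higher most likely means stronger inhibition; the record gives no direction and few retests gave an IC50. About 65,000 compounds were tested under these conditions; 0.098% (about 64) showed 50% or more at least once.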
LiHisRS: 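Enzyme assay of histidyl-tRNA synthetase; the read-out is not stated. Target: Histidine-tRNA ligase, Leishmania infantum (UniProt A4I591). Compounds at 30 µM. The record gives no direction; compounds that gave an IC50 in retests scored well above the rest, so higher reads as stronger inhibition. The assay is labelled LdHisRS but filed under L. infantum. About 69,000 compounds were tested under these conditions; 0.6% (about 410) showed 50% or more at least once.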

Values are the deposited “Percent Effect”, in %. The controls that fix the scale are not given in the record; negative values are as filed. The compounds are a random part of those screened.

{"compound": "Cc1ccccc1CN(CCO)Cc1ncc[nH]1", "CoaBC": 1.366, "Pks13 thioesterase": -12.25, "MtTrpRS": 2.46, "LiHisRS": -2.5}
{"compound": "O=C(CN1CCC[C@@H]1C(=O)O)NCCOc1cccc(C(F)(F)F)c1", "CoaBC": 1.208, "Pks13 thioesterase": -5.209, "MtTrpRS": -2, "LiHisRS": 13.13}
{"compound": "c1ccc(-c2cnc(CNC3CCc4ncnn4C3)o2)cc1", "stereo": "stereo unspecified", "CoaBC": -8.961, "Pks13 thioesterase": 10.91, "MtTrpRS": 8.028, "LiHisRS": 0}
{"compound": "Cc1cccc(N2CC3(COCCN(c4ccncn4)C3)OCC2=O)c1", "stereo": "stereo unspecified", "CoaBC": 0, "Pks13 thioesterase": -35.94, "MtTrpRS": -6.46, "LiHisRS": 4}
{"compound": "COCCCN1CC2(CCCN(CCn3cc(Cl)cn3)C2)CCC1=O", "stereo": "stereo unspecified", "CoaBC": 5.646, "Pks13 thioesterase": -6.158, "MtTrpRS": 1.989, "LiHisRS": 6.024}
{"compound": "CN1C[C@H](O)C[C@H]1c1nc(-c2ccc(OC(F)(F)F)cc2)no1", "CoaBC": 7.901, "Pks13 thioesterase": -26.65, "MtTrpRS": -5.196, "LiHisRS": 11.11}
{"compound": "c1csc(-c2nc(CN3CCCCC3Cn3cncn3)cs2)c1", "stereo": "stereo unspecified", "CoaBC": 4.987, "Pks13 thioesterase": -3.865, "MtTrpRS": -7.335, "LiHisRS": 16.95}
{"compound": "CCOc1ncccc1NC(=O)N1CCCCCC1", "CoaBC": 6.745, "Pks13 thioesterase": 10.7, "MtTrpRS": -2.43, "LiHisRS": 27.69}
{"compound": "CCOc1ncccc1C(=O)NCC(O)c1ccc(F)c(F)c1", "stereo": "stereo unspecified", "CoaBC": 2.439, "Pks13 thioesterase": 1.224, "MtTrpRS": 1.053, "LiHisRS": 11.2}
{"compound": "O=C(c1cscn1)N1C[C@@H]2C[C@@H](c3nnc(C4CC4)o3)O[C@@H]2C1", "CoaBC": 0.3802, "Pks13 thioesterase": -7.303, "MtTrpRS": -4.961, "LiHisRS": 10.68}
{"compound": "CN(C)C(=O)COCc1cncc2c1CCN(Cc1ccccn1)C2", "CoaBC": 3.059, "Pks13 thioesterase": -34.32, "MtTrpRS": -2.985, "LiHisRS": 26.61}
{"compound": "O=C(C1CC1)N1CCOC2(CCNCC2)C1", "CoaBC": 2.963, "Pks13 thioesterase": -12.12, "LiHisRS": 6.364}
{"compound": "CCNC(=O)[C@@H]1C[C@@H](N)CN1Cc1ccc(Sc2ccc(C)cc2)o1", "CoaBC": -15.49, "Pks13 thioesterase": -34.06, "MtTrpRS": -3.073, "LiHisRS": 33.33}
{"compound": "O=C(c1ccc2c(c1)OCCCO2)N1CCCC(n2cccn2)C1", "stereo": "stereo unspecified", "CoaBC": 9.895, "Pks13 thioesterase": -6.498, "MtTrpRS": -3.672, "LiHisRS": 2.632}
{"compound": "CCOCCn1nc(C2CCNCC2)n(Cc2ccccc2)c1=O", "CoaBC": -8.73, "Pks13 thioesterase": 10.79, "MtTrpRS": 4.617, "LiHisRS": 13.89}
{"compound": "Cc1ccc(N2CCCc3sc(C(=O)NCc4ccc(C)o4)nc32)nn1", "CoaBC": 9.627, "Pks13 thioesterase": -23.93, "MtTrpRS": 3.585, "LiHisRS": 24.32}
{"compound": "Cc1noc(C)c1C(=O)N1CC[C@]2(C[C@@H](OCc3cccnc3)CO2)C1", "CoaBC": 1, "Pks13 thioesterase": -0.6537, "MtTrpRS": 1.72, "LiHisRS": 14}
{"compound": "COc1ccc(CNC(=O)NCc2ccc(C(N)=O)cc2)cn1", "Pks13 thioesterase": -33.66, "MtTrpRS": -4.438, "LiHisRS": 20}
{"compound": "c1ccc2oc(CN3CCOC(Cn4cccn4)C3)nc2c1", "stereo": "stereo unspecified", "CoaBC": 5.222, "Pks13 thioesterase": -6.329, "MtTrpRS": -5.768, "LiHisRS": 15.04}

2 of the entries, repeated:

{"compound": "CN(C)C(=O)COCc1cncc2c1CCN(Cc1ccccn1)C2", "CoaBC": 3.059, "Pks13 thioesterase": -34.32, "MtTrpRS": -2.985, "LiHisRS": 26.61}
{"compound": "O=C(CN1CCC[C@@H]1C(=O)O)NCCOc1cccc(C(F)(F)F)c1", "CoaBC": 1.208, "Pks13 thioesterase": -5.209, "MtTrpRS": -2, "LiHisRS": 13.13}